{"source": "PubChem BioAssay AID540256", "about": "(National Center for Advancing Translational Sciences (NCATS), 2011)", "note": "Screen size: about 300,000 compounds; about 3,700 (1.2%) were called active. The inconclusive results got no clear call from the source; some entries with a clear call stand among them for comparison. Calls come from the whole dose curve; tested in HEK293 cells. Potencies of inconclusive entries are doubtful fits and often do not repeat. % is set by controls: 0 for no effect and ±100 for the full control effect; potency is the fitted concentration of half-maximal effect.", "data": [{"assay": "qHTS for Inhibitors of binding or entry into cells for Lassa Virus; note: nearly all actives have a fitted effect of over 50% in size", "conditions": "Lassa virus pseudotype entry inhibition, cell reporter; activity change, negative = inhibition: at 37.9 µM (top of the series) unless noted", "values": [{"smiles": "Nc1c([N+](=O)[O-])cc(F)c(N2CCNCC2)c1Br", "activity change, negative = inhibition": "inactive: -0.583%"}, {"smiles": "CCCCn1c(N)c(N(CC(C)C)C(=O)Cn2c(=O)oc3ccccc32)c(=O)[nH]c1=O", "Potency": "inconclusive: 6.31 µM [activator, partial curve, poor fit]"}, {"smiles": "CC(C)CNC(=O)c1cc2nc3c(c(C(F)(F)F)n2n1)CCc1ccccc1-3", "activity change, negative = inhibition": "inactive: 1.45%"}, {"smiles": "COc1cc(CNCCN(C)C)ccc1OCc1c(F)cccc1Cl", "Potency": "inconclusive: 35.5 µM [inhibitor, single point]"}, {"smiles": "O=C(Nc1ccccc1N1CCCC1)c1cccc(-c2cc3ccccc3oc2=O)c1", "activity change, negative = inhibition": "inactive: -2.21%"}, {"smiles": "CCCc1nnc(NC(=O)Nc2ccccc2Cl)s1", "Potency": "inconclusive: 35.5 µM [activator, single point]"}, {"smiles": "COc1ccc2sc(N(CCCN(C)C)C(=O)c3ccc(S(=O)(=O)N(C)Cc4ccccc4)cc3)nc2c1", "Potency": "inconclusive: 35.5 µM [inhibitor, single point]"}, {"smiles": "COc1ccccc1Nc1nc(Cl)nc(Nc2ccccc2OC)n1", "activity change, negative = inhibition": "inactive: 0.657%"}, {"smiles": "O=C(NCCCn1ccnc1)/C(=C/c1ccc(F)cc1)NC(=O)c1ccccc1", "Potency": "inconclusive: 3.98 µM [inhibitor, single point]"}, {"smiles": "CC(N)C12CC3CC(CC(C3)C1)C2", "note": "(stereo not given)", "Potency": "inconclusive: 0.447 µM [inhibitor, partial curve, poor fit]"}, {"smiles": "CCc1ccc(S(=O)(=O)Nc2cc(SCC(=O)O)c(O)c3ccccc23)cc1", "Potency": "inconclusive: 29.1 µM [inhibitor, single point]"}, {"smiles": "CCOC(=O)C(C(=O)NCc1ccc(C)cc1)c1ncc(C(F)(F)F)cc1Cl", "note": "(stereo not given)", "Potency": "inconclusive: 12.6 µM [inhibitor, partial curve]"}, {"smiles": "CCN(c1ccccc1)S(=O)(=O)c1ccc(C(=O)NCc2ccccn2)cc1", "Potency": "inconclusive: 11.2 µM [inhibitor, partial curve, poor fit]"}, {"smiles": "c1ccc(Cn2ccnc2-c2ccco2)cc1", "Potency": "inconclusive: 17.8 µM [activator, partial curve, poor fit]"}, {"smiles": "CCN(C(=O)COC(=O)c1c2c(nc3ccccc13)/C(=C/c1ccccc1)CC(C)C2)C1CCS(=O)(=O)C1", "note": "(stereo not given)", "Potency": "inconclusive: 14.6 µM [inhibitor, partial curve]"}, {"smiles": "CCC(=O)Nc1ccc(NC(=O)CSc2nnc(-c3ccc(O)cc3)n2CC2CCCO2)cc1", "note": "(stereo not given)", "Potency": "inconclusive: 2 µM [inhibitor, partial curve, poor fit]"}, {"smiles": "COc1ccc(Cl)cc1C(=O)Nc1ccc(NC(=O)C(C)C)cc1", "Potency": "inconclusive: 6.31 µM [inhibitor, single point]"}, {"smiles": "O=C(Nc1cccnc1)c1ccccc1NS(=O)(=O)c1ccc(F)cc1", "Potency": "inconclusive: 35.5 µM [inhibitor, single point]"}, {"smiles": "Cc1ccc(NC(=S)N(CCN2CCCCC2)Cc2ccco2)cc1C", "Potency": "inconclusive: 35.5 µM [inhibitor, single point]"}, {"smiles": "CCOc1ccc2[nH]c(C(=O)N/N=C/c3cc(OC)c(OC)c(OC)c3)cc2c1", "Potency": "inconclusive: 35.5 µM [inhibitor, partial curve, poor fit]"}, {"smiles": "COc1ccc(C)cc1NC(=O)c1oc2ccc(S(=O)(=O)N3CCC4(CC3)OCCO4)cc2c1C", "activity change, negative = inhibition": "inactive: 8% [at 46.1 µM]"}, {"smiles": "COC(=O)c1ccc(COc2ccc3c(C)c(C)c(=O)oc3c2C)o1", "Potency": "inconclusive: 3.26 µM [activator, single point]"}, {"smiles": "CCC[n+]1c2ccccc2cc2ccccc21", "Potency": "inconclusive: 11.2 µM [inhibitor, single point]"}, {"smiles": "CCOC(=O)N1CCN(CC(=O)Nc2c(C(=O)OC)[nH]c3ccc(Cl)cc23)CC1", "Potency": "inconclusive: 20 µM [inhibitor, single point]"}, {"smiles": "CCOC(=O)C1(Cc2cccc(OC)c2)CCCN(C(=O)c2ccc(OC)o2)C1", "note": "(stereo not given)", "activity change, negative = inhibition": "inactive: 2.78%"}, {"smiles": "Cc1noc(C)c1COC(=O)c1cc2c3ccccc3n(C)c2s1", "Potency": "inconclusive: 17.8 µM [inhibitor, partial curve, poor fit]"}, {"smiles": "COc1ccc(C)cc1NC(=O)c1nnn(-c2c(C)cccc2C)c1C", "activity change, negative = inhibition": "inactive: 9.72% [at 46.1 µM]"}, {"smiles": "O=C(CNC(=O)c1cccs1)N/N=C/c1ccccc1[N+](=O)[O-]", "Potency": "inconclusive: 6.31 µM [activator, partial curve, poor fit]"}, {"smiles": "Cc1ccc(OC(C)C(=O)Nc2ccccc2C(=O)N2CCN(C)CC2)cc1", "note": "(stereo not given)", "activity change, negative = inhibition": "inactive: -15%"}, {"smiles": "COc1ccc(C(=O)Nc2ccc(NC(=O)c3cc(OC)c(OC)c(OC)c3)cn2)cc1", "activity change, negative = inhibition": "inactive: 13.7% [at 46.1 µM]"}, {"smiles": "COC(=O)c1sc(-c2ccccc2)cc1NC(=O)c1ccccc1", "activity change, negative = inhibition": "inactive: 15.5%"}, {"smiles": "COc1cc(SC)ccc1C(=O)NCCc1c[nH]c2ccccc12", "Potency": "inconclusive: 25.1 µM [inhibitor, single point]"}, {"smiles": "O=C(NCc1ccco1)c1sc2cc(Cl)ccc2c1Cl", "Potency": "inconclusive: 6.51 µM [activator, partial curve, poor fit]"}, {"smiles": "CCC(CC)C(=O)Nc1nnc(SCC(=O)NC2CCCCC2)s1", "Potency": "inconclusive: 1.78 µM [inhibitor, partial curve, poor fit]"}, {"smiles": "FC(F)(F)c1cccnc1Oc1ccc(C2=NCCS2)cc1", "activity change, negative = inhibition": "inactive: 3.08%"}, {"smiles": "CC(=O)Nc1nnc2n1CCS2", "activity change, negative = inhibition": "inactive: 15.4% [at 46.1 µM]"}, {"smiles": "Cc1ccc(OCCCNCCO)c(Br)c1", "Potency": "inconclusive: 35.5 µM [inhibitor, single point]"}, {"smiles": "COc1ccc(CN2CC(C(=O)NCc3cccc(OC)c3)CC2=O)cc1", "note": "(stereo not given)", "activity change, negative = inhibition": "inactive: 2.06%"}, {"smiles": "O=C(NCCCN1CCCC1=O)c1cc2nc(-c3ccco3)cc(C(F)(F)F)n2n1", "activity change, negative = inhibition": "inactive: 0.507%"}, {"smiles": "COCCNC(=O)c1c(NC(=O)c2ccc(Br)o2)n(Cc2ccccc2)c2nc3ccccc3nc12", "activity change, negative = inhibition": "inactive: -27%"}, {"smiles": "CSc1nc2ccccc2n1Cc1c(Cl)cccc1Cl", "activity change, negative = inhibition": "inactive: 2.84%"}, {"smiles": "CC(C)SCCCOc1ccc(C(C)(C)C)cc1", "activity change, negative = inhibition": "inactive: 14.4%"}, {"smiles": "CCOC(=O)N/N=C(/C)c1ccc(N2C(=O)C3CCCCC3C2=O)cc1", "note": "(stereo not given)", "Potency": "inconclusive: 29.1 µM [activator, partial curve, poor fit]"}, {"smiles": "CCc1nnc(NC(=O)CSc2nnc(Cc3ccccc3)o2)s1", "Potency": "inconclusive: 29.1 µM [activator, partial curve, poor fit]"}, {"smiles": "O=C(Nc1ccc(Cl)c(Cl)c1)Nc1cc(S(=O)(=O)N2CCOCC2)ccc1N1CCCC1", "Potency": "inconclusive: 16.4 µM [inhibitor, single point]"}]}]}
